This is one part of the list.
Key:
Test in all cases: log2 fold change, soluble protein after heating vs DMSO (PISA); higher = thermal stabilisation; K562 cells, 10 uM, 30 min; active = over 0.2 and 3.5 SD of the protein, either way, in both replicates (recomputed)
[1] = compound: CC1=C(C=C(C=C1)NC(=O)C2=CC(=CC=C2)C(C)(C)C#N)NC3=CC4=C(C=C3)N=CN(C4=O)C
Method in brief: (§1)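 K562 cells (2×10^6 cells/mL) were treated with 10 μM compound for 30 min, and aliquots were heated for 3 min over 48°C-58°C. Pooled aliquots were extracted in PBS with 0.5% NP-40 at 4°C, and the supernatant after 21,000xg for 90 min was measured by TMTpro 16plex LC-MS/MS with channel sums equalised. Reported thermal stability, relative to control samples and from duplicates, is a log2 fold change.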

The chains behind the UniProt entries cited, without tags or fusion partners. Where a name states a change or a piece, a line headed by the entry shows the natural chain unless it says otherwise.
UniProt P84157: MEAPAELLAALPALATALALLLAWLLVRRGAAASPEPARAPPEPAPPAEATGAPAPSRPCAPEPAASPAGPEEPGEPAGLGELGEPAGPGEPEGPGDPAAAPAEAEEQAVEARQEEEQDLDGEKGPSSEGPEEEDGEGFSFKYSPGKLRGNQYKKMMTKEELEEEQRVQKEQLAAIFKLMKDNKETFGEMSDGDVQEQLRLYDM
UniProt P52701: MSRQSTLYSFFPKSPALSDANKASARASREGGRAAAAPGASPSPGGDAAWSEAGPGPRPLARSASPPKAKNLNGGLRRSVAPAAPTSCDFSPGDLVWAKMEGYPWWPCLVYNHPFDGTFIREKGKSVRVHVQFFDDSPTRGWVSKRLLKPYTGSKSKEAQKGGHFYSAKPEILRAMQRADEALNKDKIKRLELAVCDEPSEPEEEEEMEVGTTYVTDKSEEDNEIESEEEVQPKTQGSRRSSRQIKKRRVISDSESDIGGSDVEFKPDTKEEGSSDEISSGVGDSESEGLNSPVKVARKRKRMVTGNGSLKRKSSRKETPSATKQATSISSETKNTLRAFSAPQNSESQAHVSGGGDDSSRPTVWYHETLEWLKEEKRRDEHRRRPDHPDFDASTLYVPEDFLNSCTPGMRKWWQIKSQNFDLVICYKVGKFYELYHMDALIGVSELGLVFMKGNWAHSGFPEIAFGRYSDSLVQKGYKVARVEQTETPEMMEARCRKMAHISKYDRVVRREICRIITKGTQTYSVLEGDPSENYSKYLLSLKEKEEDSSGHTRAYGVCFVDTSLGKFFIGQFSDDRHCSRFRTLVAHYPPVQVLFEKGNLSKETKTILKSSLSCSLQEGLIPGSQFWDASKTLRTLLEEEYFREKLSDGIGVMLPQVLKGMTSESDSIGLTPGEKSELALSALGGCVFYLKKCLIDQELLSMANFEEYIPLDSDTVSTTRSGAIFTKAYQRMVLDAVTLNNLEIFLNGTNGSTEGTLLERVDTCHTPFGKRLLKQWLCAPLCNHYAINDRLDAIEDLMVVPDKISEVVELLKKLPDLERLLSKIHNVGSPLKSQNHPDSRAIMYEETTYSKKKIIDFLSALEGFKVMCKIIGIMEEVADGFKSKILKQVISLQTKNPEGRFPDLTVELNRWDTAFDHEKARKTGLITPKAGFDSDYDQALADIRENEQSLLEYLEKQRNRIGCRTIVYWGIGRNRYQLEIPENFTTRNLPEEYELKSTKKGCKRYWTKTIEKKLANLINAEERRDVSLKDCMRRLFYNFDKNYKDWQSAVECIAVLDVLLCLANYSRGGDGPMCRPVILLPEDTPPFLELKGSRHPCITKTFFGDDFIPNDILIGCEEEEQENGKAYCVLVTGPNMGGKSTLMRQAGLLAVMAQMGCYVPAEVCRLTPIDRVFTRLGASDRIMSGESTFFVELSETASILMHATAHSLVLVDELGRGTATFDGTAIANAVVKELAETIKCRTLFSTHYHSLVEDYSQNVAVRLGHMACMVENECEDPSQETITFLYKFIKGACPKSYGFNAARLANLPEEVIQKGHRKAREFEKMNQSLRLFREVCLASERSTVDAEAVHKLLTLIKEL
UniProt P20585: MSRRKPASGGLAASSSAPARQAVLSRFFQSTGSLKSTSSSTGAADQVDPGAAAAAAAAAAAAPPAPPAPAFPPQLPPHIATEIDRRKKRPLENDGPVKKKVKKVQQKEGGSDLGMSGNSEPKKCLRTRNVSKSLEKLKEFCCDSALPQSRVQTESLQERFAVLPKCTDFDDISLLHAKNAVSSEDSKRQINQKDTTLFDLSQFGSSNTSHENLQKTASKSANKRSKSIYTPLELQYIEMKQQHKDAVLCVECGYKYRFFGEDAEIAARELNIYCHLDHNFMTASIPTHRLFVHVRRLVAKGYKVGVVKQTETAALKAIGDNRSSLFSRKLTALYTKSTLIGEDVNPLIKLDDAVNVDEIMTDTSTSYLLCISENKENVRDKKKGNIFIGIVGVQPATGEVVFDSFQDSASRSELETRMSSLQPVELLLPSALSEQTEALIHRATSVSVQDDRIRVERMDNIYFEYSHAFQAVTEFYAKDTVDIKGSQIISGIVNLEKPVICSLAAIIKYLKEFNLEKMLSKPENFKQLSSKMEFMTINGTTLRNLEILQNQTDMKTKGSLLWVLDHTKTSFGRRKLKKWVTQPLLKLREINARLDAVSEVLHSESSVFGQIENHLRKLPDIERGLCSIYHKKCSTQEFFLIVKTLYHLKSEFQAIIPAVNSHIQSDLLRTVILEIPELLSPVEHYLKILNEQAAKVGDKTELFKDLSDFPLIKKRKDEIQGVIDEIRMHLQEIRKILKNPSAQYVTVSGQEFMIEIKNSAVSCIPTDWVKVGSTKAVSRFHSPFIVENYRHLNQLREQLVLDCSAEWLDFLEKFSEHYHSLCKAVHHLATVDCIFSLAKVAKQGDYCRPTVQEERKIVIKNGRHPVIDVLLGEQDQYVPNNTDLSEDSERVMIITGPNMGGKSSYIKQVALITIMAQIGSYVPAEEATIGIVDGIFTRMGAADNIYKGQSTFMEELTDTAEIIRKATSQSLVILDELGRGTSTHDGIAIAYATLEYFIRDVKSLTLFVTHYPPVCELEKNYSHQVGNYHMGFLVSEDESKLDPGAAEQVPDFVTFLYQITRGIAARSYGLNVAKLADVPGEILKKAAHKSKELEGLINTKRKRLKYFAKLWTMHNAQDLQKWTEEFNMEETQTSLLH
UniProt P43246, whole entry, looked up: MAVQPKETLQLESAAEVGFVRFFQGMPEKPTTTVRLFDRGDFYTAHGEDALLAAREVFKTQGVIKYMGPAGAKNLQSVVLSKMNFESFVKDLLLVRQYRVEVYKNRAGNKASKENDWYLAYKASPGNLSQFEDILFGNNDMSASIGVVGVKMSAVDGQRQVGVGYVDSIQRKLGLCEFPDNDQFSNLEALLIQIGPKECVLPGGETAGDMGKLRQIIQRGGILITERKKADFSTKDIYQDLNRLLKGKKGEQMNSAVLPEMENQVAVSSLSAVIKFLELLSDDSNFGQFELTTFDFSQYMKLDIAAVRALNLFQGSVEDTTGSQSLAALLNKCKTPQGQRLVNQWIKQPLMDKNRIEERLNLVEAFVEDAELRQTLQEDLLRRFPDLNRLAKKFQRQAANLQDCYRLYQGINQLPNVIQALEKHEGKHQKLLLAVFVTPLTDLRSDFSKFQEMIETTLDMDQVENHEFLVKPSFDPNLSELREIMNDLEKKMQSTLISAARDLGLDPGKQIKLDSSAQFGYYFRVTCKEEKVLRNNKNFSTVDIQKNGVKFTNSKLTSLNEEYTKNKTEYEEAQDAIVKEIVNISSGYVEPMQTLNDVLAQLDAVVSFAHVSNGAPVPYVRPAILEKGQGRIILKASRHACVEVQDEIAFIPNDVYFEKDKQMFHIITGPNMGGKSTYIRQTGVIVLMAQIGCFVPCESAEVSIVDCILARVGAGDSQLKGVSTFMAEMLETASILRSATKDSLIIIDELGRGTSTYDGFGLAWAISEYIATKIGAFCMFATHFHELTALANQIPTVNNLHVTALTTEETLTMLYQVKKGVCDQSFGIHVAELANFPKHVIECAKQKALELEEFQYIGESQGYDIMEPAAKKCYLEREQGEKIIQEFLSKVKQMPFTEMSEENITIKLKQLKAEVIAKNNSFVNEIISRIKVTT
UniProt P35749, whole entry, looked up: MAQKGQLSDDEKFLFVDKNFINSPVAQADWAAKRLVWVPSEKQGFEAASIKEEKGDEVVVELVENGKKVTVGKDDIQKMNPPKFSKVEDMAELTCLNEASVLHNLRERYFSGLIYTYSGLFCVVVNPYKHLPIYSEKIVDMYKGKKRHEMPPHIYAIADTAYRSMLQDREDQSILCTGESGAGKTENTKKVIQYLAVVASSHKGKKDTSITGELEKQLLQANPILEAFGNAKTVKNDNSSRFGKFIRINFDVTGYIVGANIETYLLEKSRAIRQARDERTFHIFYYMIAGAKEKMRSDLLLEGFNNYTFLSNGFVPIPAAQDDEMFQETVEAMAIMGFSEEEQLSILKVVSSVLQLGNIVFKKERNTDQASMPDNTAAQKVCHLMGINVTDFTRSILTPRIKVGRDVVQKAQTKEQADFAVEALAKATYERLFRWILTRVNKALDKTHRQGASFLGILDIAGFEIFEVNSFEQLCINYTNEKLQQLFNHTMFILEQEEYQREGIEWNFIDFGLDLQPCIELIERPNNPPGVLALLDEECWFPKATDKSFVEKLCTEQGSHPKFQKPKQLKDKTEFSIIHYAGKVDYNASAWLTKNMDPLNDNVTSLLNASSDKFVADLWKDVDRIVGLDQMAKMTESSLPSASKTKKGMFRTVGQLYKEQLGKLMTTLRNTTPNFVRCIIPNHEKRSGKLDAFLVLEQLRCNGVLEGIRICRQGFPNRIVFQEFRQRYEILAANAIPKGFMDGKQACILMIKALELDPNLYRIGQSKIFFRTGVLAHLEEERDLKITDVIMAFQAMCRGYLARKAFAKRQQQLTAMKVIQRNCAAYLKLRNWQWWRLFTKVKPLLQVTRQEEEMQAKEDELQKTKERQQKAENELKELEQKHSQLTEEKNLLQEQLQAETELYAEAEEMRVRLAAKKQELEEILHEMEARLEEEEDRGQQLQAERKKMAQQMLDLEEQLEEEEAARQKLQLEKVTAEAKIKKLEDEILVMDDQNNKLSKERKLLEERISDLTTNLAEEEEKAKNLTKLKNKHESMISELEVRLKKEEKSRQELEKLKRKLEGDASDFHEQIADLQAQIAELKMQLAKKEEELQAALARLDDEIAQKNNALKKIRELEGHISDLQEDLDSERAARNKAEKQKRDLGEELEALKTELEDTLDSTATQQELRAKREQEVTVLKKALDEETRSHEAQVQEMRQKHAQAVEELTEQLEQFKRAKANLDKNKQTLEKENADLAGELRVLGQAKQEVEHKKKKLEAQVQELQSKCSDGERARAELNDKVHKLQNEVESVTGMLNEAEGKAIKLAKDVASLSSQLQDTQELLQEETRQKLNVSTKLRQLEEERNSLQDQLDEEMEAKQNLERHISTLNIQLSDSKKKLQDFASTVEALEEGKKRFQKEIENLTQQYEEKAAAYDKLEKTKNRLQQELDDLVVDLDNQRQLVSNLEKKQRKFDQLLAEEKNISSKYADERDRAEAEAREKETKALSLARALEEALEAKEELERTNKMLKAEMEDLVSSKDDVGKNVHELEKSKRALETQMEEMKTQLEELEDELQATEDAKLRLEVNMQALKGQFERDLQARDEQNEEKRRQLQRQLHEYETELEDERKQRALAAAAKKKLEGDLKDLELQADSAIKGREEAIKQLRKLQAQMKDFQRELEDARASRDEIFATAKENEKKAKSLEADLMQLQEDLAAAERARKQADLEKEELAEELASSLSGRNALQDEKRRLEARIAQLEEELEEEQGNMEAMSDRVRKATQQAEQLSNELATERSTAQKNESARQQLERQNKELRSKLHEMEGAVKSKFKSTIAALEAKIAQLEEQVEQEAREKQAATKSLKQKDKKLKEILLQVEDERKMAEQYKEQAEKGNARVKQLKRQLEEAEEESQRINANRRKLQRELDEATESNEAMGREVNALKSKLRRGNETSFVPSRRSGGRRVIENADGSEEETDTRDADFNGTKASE
UniProt P03897, whole entry, looked up: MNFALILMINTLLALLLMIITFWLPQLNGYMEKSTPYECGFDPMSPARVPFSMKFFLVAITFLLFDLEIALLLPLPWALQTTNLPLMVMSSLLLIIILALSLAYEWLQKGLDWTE
UniProt Q93083: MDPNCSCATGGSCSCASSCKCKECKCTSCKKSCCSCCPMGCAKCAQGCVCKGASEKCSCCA
UniProt Q9P0P8: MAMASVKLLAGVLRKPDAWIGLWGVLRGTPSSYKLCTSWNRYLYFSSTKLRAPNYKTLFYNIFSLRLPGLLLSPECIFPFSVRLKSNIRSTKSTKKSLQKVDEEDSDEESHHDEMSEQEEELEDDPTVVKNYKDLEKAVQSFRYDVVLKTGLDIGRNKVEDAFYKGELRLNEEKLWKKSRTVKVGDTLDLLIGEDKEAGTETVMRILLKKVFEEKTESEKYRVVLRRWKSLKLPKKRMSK
UniProt Q13126: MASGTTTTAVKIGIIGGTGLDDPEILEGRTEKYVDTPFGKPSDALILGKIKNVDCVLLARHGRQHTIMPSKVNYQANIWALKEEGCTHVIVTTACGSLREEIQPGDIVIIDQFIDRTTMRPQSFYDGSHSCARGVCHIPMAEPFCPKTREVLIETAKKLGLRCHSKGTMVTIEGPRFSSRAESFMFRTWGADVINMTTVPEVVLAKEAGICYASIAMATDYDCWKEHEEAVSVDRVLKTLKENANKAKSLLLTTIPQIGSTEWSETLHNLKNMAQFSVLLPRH
UniProt P05976, whole entry, looked up: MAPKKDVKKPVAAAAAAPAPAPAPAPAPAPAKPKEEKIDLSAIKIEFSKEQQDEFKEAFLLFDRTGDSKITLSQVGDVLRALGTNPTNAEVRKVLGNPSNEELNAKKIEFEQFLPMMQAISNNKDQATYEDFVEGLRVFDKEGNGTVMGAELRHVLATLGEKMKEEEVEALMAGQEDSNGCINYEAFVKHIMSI

[2] = compound: CC1=C(C=C(C=C1)NC(=O)C2=CC(=CC=C2)N(C)C)NC(=O)C3=CC=C(C=C3)O
Method in brief: as §1

[3] = compound: CC1=CC=C(C=C1)SC2=C3C=C(SC3=CN=C2)C(=O)N
Method in brief: as §1

[4] = compound: CC1=NC(=CC=C1)C2=C(N=C(N2)C(C)(C)C)C3=CC4=NC=CN=C4C=C3
Method in brief: as §1

[5] = compound: CCCCN(Cc1ccc(C(=O)NO)cc1)C(=O)Nc1ccccc1 [Nexturastat A]
Method in brief: as §1

[6] = compound: CCCS(=O)(=O)Nc1ccc(F)c(C(=O)c2c[nH]c3ncc(-c4ccc(Cl)cc4)cc23)c1F [vemurafenib]
Method in brief: as §1

[7] = compound: CCCS(=O)(=O)Nc1ccc(F)c(C(=O)c2c[nH]c3ncc(Cl)cc23)c1F
Method in brief: as §1

[8] = compound: CCCc1cc(C)[nH]c(=O)c1CNC(=O)c1cc(-c2ccnc(N3CCN(C)CC3)c2)cc2c1cnn2C(C)C
Method in brief: as §1

[9] = compound: CCN(CC)Cc1ccc2cc(COC(=O)Nc3ccc(C(=O)NO)cc3)ccc2c1 [givinostat]
Method in brief: as §1

[10] = compound: CCN(CCCOc1ccc2c(Nc3cc(CC(=O)Nc4cccc(F)c4)[nH]n3)ncnc2c1)CCOP(=O)(O)O [barasertib]
Method in brief: as §1

[11] = compound: CC[C@@H]1C(=O)N(C)c2cnc(Nc3ccc(C(=O)NC4CCN(C)CC4)cc3OC)nc2N1C1CCCC1
Method in brief: as §1

[12] = compound: CC[C@@H]1C(=O)N(C)c2cnc(Nc3ccc(C(=O)N[C@H]4CC[C@H](N5CCN(CC6CC6)CC5)CC4)cc3OC)nc2N1C(C)C [volasertib]
Method in brief: as §1

[13] = compound: CC[C@H](C)N1C=C(C2=C(C=C(C=C21)C3=CN=C(C=C3)N4CCNCC4)C(=O)NCC5=C(C=C(NC5=O)C)C)C
Method in brief: as §1

[14] = compound: CC[C@H](C)[C@@H](C(=O)N[C@@H]([C@@H](C)O)C(=O)N[C@@H](CC(C)C)C(=O)[C@]1(CO1)C)NC(=O)[C@H]([C@@H](C)CC)N(C)C(=O)C [epoxomicin]
Method in brief: as §1

[15] = compound: CCn1cc(-c2ccnc3[nH]c(-c4cccc(CN(C)C)c4)cc23)c(-c2ccc(NC(=O)N(C)C)cc2)n1
Method in brief: as §1

[16] = compound: CN(C)CC(=O)Nc1ccc2[nH]c(=O)c3ccccc3c2c1
Method in brief: as §1

[17] = compound: CN1C2=C(C3=C1C(=O)N(N=C3)CC4=CC(=CC=C4)N)SC(=C2)S(=O)C
Method in brief: as §1

[18] = compound: CN1CCC(CNc2ccc3ncc(-c4cccc(OC(F)(F)F)c4)n3n2)CC1
Method in brief: as §1

[19] = compound: CCn1c(C(=O)N(C2CC2)C2CC2)cc2c3c(ncn3C)c(Nc3cc(C)n(C)n3)nc21
Method in brief: as §1

[20] = compound: CN(CCOC1=CC=C(C=C1)C[C@H]2C(=O)NC(=O)S2)C3=CC=CC=N3 (racemic) [rosiglitazone]
Method in brief: as §1

Measured: log2 fold change

MXRA7 (UniProt P84157)
inactive: [1] -0.181 | [2] -0.015 | [3] 0.038 | [4] 0.011 | [5] -0.002 | [6] 0.041 | [7] -0.032 | [8] -0.078 | [9] 0.011 | [10] 0.048 | [11] 0.04 | [12] 0.08 | [13] -0.11 | [14] -0.034 | [15] -0.042 | [16] 0.124 | [17] -0.114 | [18] 0.113

MSH6 (UniProt P52701)
inactive: [1] 0.076 | [2] -0.078 | [3] 0.112 | [4] 0.108 | [5] -0.049 | [6] 0.119 | [7] 0.194 | [8] 0.03 | [9] 0.35 | [10] 0.171 | [11] -0.306 | [13] 0.227 | [14] 0.097 | [15] -0.089 | [16] 0.172 | [17] -0.044 | [18] -0.261
active: [12] -0.683

MSH3 (UniProt P20585)
inactive: [1] 0.029 | [2] -0.033 | [3] 0.021 | [4] -0.101 | [5] -0.015 | [6] 0.019 | [7] 0.053 | [8] -0.013 | [9] 0.002 | [10] -0.001 | [11] -0.032 | [12] -0.179 | [13] -0.003 | [14] 0.062 | [15] -0.019 | [16] -0.028 | [17] -0.008 | [18] 0.047

MRPS2 (UniProt Q9Y399)
inactive: [1] 0.075 | [2] -0.049 | [3] -0.018 | [4] 0.029 | [5] 0.049 | [6] 0.126 | [7] 0.041 | [8] -0.084 | [9] -0.044 | [10] -0.031 | [11] -0.048 | [12] 0.037 | [13] 0.053 | [14] 0.02 | [15] -0.045 | [16] 0.031 | [17] 0.016 | [18] 0.044

MSTO1 (UniProt Q9BUK6)
inactive: [1] -0.032 | [2] -0.052 | [3] -0.02 | [4] 0.024 | [5] -0.118 | [6] 0.052 | [7] 0.018 | [8] -0.012 | [9] 0.011 | [10] 0.037 | [11] 0.014 | [12] -0.012 | [13] 0.046 | [14] 0.044 | [15] -0.119 | [16] 0.071 | [17] -0.057 | [18] -0.185

MSH2 (UniProt P43246)
inactive: [1] 0.038 | [2] -0.067 | [3] 0.017 | [4] 0.066 | [5] -0.018 | [6] 0.069 | [7] 0.08 | [8] 0.019 | [9] 0.083 | [10] 0.057 | [11] -0.103 | [12] -0.173 | [13] 0.039 | [14] 0.066 | [15] 0.036 | [16] 0.059 | [17] -0.019 | [18] -0.067

MRPS27 isoform 2 (UniProt Q92552)
inactive: [1] 0.037 | [2] -0.022 | [3] 0.006 | [4] 0.039 | [5] 0.151 | [6] 0.064 | [7] 0.035 | [8] 0.051 | [9] 0.055 | [10] -0.016 | [11] -0.02 | [12] -0.041 | [13] 0.132 | [14] 0.052 | [15] -0.046 | [16] 0.019 | [17] 0.047 | [18] -0.001

MYH11 isoform 2 (UniProt P35749)
inactive: [1] 0.009 | [2] 0.057 | [3] -0.003 | [4] 0.004 | [5] -0.014 | [6] 0.051 | [7] -0.006 | [8] -0.253 | [9] 0.032 | [10] 0.057 | [11] -0.021 | [12] -0.045 | [13] 0.042 | [14] 0.061 | [15] 0.046 | [16] 0.019 | [17] -0.077 | [18] -0.018

MRPS9 (UniProt P82933)
inactive: [1] 0.053 | [2] -0.025 | [3] -0.029 | [4] 0.02 | [5] 0.057 | [6] -0.043 | [7] 0.053 | [8] -0.019 | [9] 0.026 | [10] -0.043 | [11] 0.094 | [12] 0.109 | [13] 0.076 | [14] -0.009 | [15] 0.027 | [16] -0.004 | [17] 0.071 | [18] 0.001

Quoted at random: 2 entries already listed.
MSH6 (UniProt P52701)
inactive: [1] 0.076 | [2] -0.078 | [3] 0.112 | [4] 0.108 | [5] -0.049 | [6] 0.119 | [7] 0.194 | [8] 0.03 | [9] 0.35 | [10] 0.171 | [11] -0.306 | [13] 0.227 | [14] 0.097 | [15] -0.089 | [16] 0.172 | [17] -0.044 | [18] -0.261
active: [12] -0.683

MYH11 isoform 2 (UniProt P35749)
inactive: [1] 0.009 | [2] 0.057 | [3] -0.003 | [4] 0.004 | [5] -0.014 | [6] 0.051 | [7] -0.006 | [8] -0.253 | [9] 0.032 | [10] 0.057 | [11] -0.021 | [12] -0.045 | [13] 0.042 | [14] 0.061 | [15] 0.046 | [16] 0.019 | [17] -0.077 | [18] -0.018

Next records

MRPS17 (UniProt Q9Y2R5)
inactive: [1] 0.055 | [2] -0.095 | [3] -0.014 | [4] 0.008 | [5] 0.085 | [6] 0.084 | [7] 0.031 | [8] 0.095 | [9] -0.103 | [10] 0.01 | [11] -0.111 | [12] -0.018 | [13] 0.022 | [14] -0.043 | [15] 0.043 | [16] 0.069 | [17] 0.022 | [18] -0.016

MRPS24 (UniProt Q96EL2)
inactive: [1] -0.01 | [2] -0.037 | [3] 0.047 | [4] -0.003 | [5] 0.095 | [6] -0.065 | [7] 0.057 | [8] -0.016 | [9] -0.035 | [10] -0.024 | [11] -0.004 | [12] 0.121 | [13] 0.126 | [14] -0.067 | [15] -0.095 | [16] 0 | [17] -0.004 | [18] 0.07

MVK (UniProt Q03426)
inactive: [1] 0.017 | [2] -0.016 | [3] 0.019 | [4] 0.026 | [5] -0.064 | [6] 0.017 | [7] 0.009 | [8] -0.064 | [9] -0.015 | [10] 0.01 | [11] -0.002 | [12] -0.055 | [13] -0.011 | [14] -0.006 | [19] 0.022 | [15] -0.036 | [16] 0.041 | [20] 0.012 | [17] -0.027 | [18] -0.057

MUL1 (UniProt Q969V5)
inactive: [1] -0.061 | [2] -0.015 | [3] 0.01 | [4] -0.004 | [5] -0.022 | [6] -0.039 | [7] 0.024 | [8] 0.11 | [9] 0.005 | [10] 0.005 | [11] 0.061 | [12] 0 | [13] 0.045 | [14] 0.04 | [15] 0.014 | [16] -0.028 | [17] -0.004 | [18] -0.115

MYO1B (UniProt O43795)
inactive: [6] 0.156 | [15] -0.051 | [16] -0.254 | [18] 0.17

MTHFD1L (UniProt B7ZM99)
inactive: [2] 0.015 | [3] -0.012 | [6] 0.018 | [7] 0.056 | [8] -0.096 | [9] -0.005 | [10] -0.03 | [11] 0.027 | [12] -0.11 | [13] 0.004 | [19] 0.021 | [15] -0.137 | [16] 0.053 | [20] 0.097 | [17] -0.045 | [18] -0.074

MYH4 (UniProt Q9Y623)
inactive: [11] 0.91

MVP (UniProt Q14764)
inactive: [11] 1.31

MRPS36 (UniProt D6R941)
inactive: [1] -0.68 | [5] -0.043 | [13] -0.068 | [14] -0.086

MTDH (UniProt E5RJU9)
inactive: [4] 0.048

MT-ND3 (UniProt P03897)
inactive: [2] 0.173 | [4] -0.042 | [9] 0.107 | [10] -0.166 | [13] -0.079 | [19] -0.163 | [20] 0.092

MT1L (UniProt Q93083)
inactive: [2] 0.201 | [3] 0.058 | [7] 0.026 | [8] -0.159 | [9] -0.034 | [11] -0.161 | [12] 0.071 | [13] -0.018 | [19] -0.024 | [15] -0.122 | [17] 0.432 | [18] -0.139

MTRES1 (UniProt Q9P0P8)
inactive: [3] 0.059 | [5] 0.06 | [7] -0.058 | [8] -0.063 | [9] 0.067 | [11] -0.066 | [12] -0.072 | [14] -0.024 | [19] 0.036

MSANTD2 (UniProt Q6P1R3)
inactive: [1] -0.024 | [5] 0.239 | [6] -0.062 | [11] -0.071 | [14] -0.273 | [16] 0.004 | [17] 0.13

MTAP isoform 2 (UniProt Q13126)
inactive: [1] -0.067 | [4] -0.06 | [10] 0.134 | [15] -0.038 | [20] 0.121 | [17] -0.008 | [18] -0.004

MYL1 (UniProt P05976)
inactive: [10] -0.053 | [20] -0.016

MYH6 (UniProt P13533)
inactive: [3] -0.028 | [5] 0.385 | [7] 0.009 | [8] 0.085 | [9] 0.198 | [12] -0.103 | [13] -0.129 | [14] 0.001 | [19] -0.06 | [15] 0.051 | [17] -0.033 | [18] -0.101

— the supplement of paper PMC10849652
